Assay results reported in patent KR20110024037A.
No constants are given. Whether binding was seen depends on the method and setting. Some results given as binding are weak or reduced against the parent protein; the word gives no strength.

Amino acid sequences for entries named in this document (tags omitted). Residues count along the entry.
UniProt P16003, residues 26-458: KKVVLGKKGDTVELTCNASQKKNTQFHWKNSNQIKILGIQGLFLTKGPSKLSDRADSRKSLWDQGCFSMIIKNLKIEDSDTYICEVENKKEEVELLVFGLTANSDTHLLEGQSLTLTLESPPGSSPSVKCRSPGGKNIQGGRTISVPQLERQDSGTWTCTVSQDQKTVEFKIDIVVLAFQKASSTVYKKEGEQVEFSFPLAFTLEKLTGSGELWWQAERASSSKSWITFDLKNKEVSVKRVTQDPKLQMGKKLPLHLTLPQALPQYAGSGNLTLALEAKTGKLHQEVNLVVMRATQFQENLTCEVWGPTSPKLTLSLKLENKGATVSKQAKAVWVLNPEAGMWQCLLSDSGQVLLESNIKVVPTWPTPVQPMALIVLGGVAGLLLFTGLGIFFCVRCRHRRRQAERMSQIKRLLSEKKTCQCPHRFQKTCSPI

What was measured:
[1] = target: 원숭이 CD4 항원 (Rhesus monkey CD4) (monkey (Rhesus)) (UniProt P16003); assay: immunohistochemistry on frozen monkey spleen sections, DAB
[2] = target: 원숭이 CD4 항원 (Rhesus monkey CD4) (monkey (Rhesus)) (UniProt P16003); assay: flow cytometry on CHO CD4 transfectants, FITC anti-IgG secondary; CHO cells without CD4 as negative control

binding [1]: binds | binding [2]: binds
B1: 고 친화성 단일 클론 항 원숭이 CD4 항체 (수탁번호 KCLRF-BP-00211 융합세포주가 분비하는 단일클론항체) (antibody, V domains shown)
VH: QVQLQQSGAELAKPGASVKMSCKASGYTFTRNWMHWVKQRPGQGLEWIGYINPSTGYVEYNQKFRDKATLTADKSSNTAYIQLSSLTSEDSAVYFCATYRYDGNWGQGTLVTVS
VL: QIVLTQSPAIMSASLGERVTMTCTASSSVNSSNLHWYQQKPGSSPKLWIYSTSNLASGVPARFSGSGSGTSYSLTISSMEAEDAATYYCHQYHRSPLTFGAGTKLELKR
